Reference: PubChem BioAssay AID686938 (Drosophila RNAi Screening Center, 2013)

Purpose: 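Knock-downs reducing store-operated calcium influx in Drosophila cells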 (primary screen)
System: Drosophila S2R+ cells
Reagents: long dsRNA against Drosophila genes, about 0.25 µg dsRNA per well, roughly 10,000 cells
Timing: 5 days of knock-down before the calcium assay
Challenge: thapsigargin (SERCA pump blocker) to empty calcium stores; entry signal taken 4 min after adding it
Measured: 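Per-well fluo-4 fluorescence in two replicates, unnormalised, measured in resting cells and 4 min after store depletion by the SERCA blocker thapsigargin; ratio of the two present in few wells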
Scale: calcium entry signal: higher = stronger calcium signal after store depletion; resting calcium signal: higher = higher resting calcium signal
Units: calcium entry signal in fluorescence units; resting calcium signal in fluorescence units
Rule for the call: 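Called when the plate z-score of the entry-to-rest ratio, mean of duplicates, falls below −3; wells with low overall dye signal (Fmax z below −2) or more than five off-targets excluded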
Meaning of the calls: active = strongly reduced calcium entry; inactive = no strong reduction
The screen tested about 23,000 reagents; below is a random part of those that have a named target and a result. Over the whole deposit, 75 (0.33%) are marked active. 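Raw plate signals without normalisation; calls rest on plate z-scores that were not deposited; ratio present for only 364 wells.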 Reagents against one gene are numbered here. A plus sign joins genes that one reagent is predicted to hit. Reagent sequences are not shown. The record does not give: the dose of the treatment.

CG14238: calcium entry signal, replicate 1 = 2.45e7; calcium entry signal, replicate 2 = 4.07e7; resting calcium signal, replicate 1 = 1.42e7; resting calcium signal, replicate 2 = 1.80e7; activity call = inactive
CG34150: calcium entry signal, replicate 1 = 4.35e7; calcium entry signal, replicate 2 = 3.15e7; resting calcium signal, replicate 1 = 2.04e7; resting calcium signal, replicate 2 = 1.78e7; activity call = inactive
CG13689: calcium entry signal, replicate 1 = 3.28e7; calcium entry signal, replicate 2 = 4.28e7; resting calcium signal, replicate 1 = 1.51e7; resting calcium signal, replicate 2 = 1.79e7; activity call = inactive
ATPsyngamma: calcium entry signal, replicate 1 = 4.01e7; calcium entry signal, replicate 2 = 3.84e7; resting calcium signal, replicate 1 = 1.96e7; resting calcium signal, replicate 2 = 1.85e7; activity call = inactive
Jheh1: calcium entry signal, replicate 1 = 2.40e7; calcium entry signal, replicate 2 = 2.20e7; resting calcium signal, replicate 1 = 1.16e7; resting calcium signal, replicate 2 = 1.07e7; activity call = inactive
CG14260: calcium entry signal, replicate 1 = 4.11e7; calcium entry signal, replicate 2 = 7.22e7; resting calcium signal, replicate 1 = 1.93e7; resting calcium signal, replicate 2 = 2.72e7; activity call = inactive
dor: calcium entry signal, replicate 1 = 4.28e7; calcium entry signal, replicate 2 = 4.74e7; resting calcium signal, replicate 1 = 1.91e7; resting calcium signal, replicate 2 = 2.36e7; activity call = inactive
alien + CG17906: calcium entry signal, replicate 1 = 2.62e7; calcium entry signal, replicate 2 = 3.18e7; resting calcium signal, replicate 1 = 1.10e7; resting calcium signal, replicate 2 = 1.37e7; activity call = inactive
CG7409: calcium entry signal, replicate 1 = 3.71e7; calcium entry signal, replicate 2 = 5.27e7; resting calcium signal, replicate 1 = 1.67e7; resting calcium signal, replicate 2 = 2.40e7; activity call = inactive
Nhe1: calcium entry signal, replicate 1 = 3.66e7; resting calcium signal, replicate 1 = 1.64e7; activity call = inactive
CG7126: calcium entry signal, replicate 1 = 4.17e7; calcium entry signal, replicate 2 = 4.94e7; resting calcium signal, replicate 1 = 5.42e7; resting calcium signal, replicate 2 = 2.32e7; activity call = inactive
CG9588: calcium entry signal, replicate 1 = 3.25e7; calcium entry signal, replicate 2 = 5.35e7; resting calcium signal, replicate 1 = 1.65e7; resting calcium signal, replicate 2 = 6.36e7; activity call = inactive
CG4751: calcium entry signal, replicate 1 = 4.06e7; resting calcium signal, replicate 1 = 1.83e7; activity call = inactive

2 successive records from above, quoted:
CG7126: calcium entry signal, replicate 1 = 4.17e7; calcium entry signal, replicate 2 = 4.94e7; resting calcium signal, replicate 1 = 5.42e7; resting calcium signal, replicate 2 = 2.32e7; activity call = inactive
CG9588: calcium entry signal, replicate 1 = 3.25e7; calcium entry signal, replicate 2 = 5.35e7; resting calcium signal, replicate 1 = 1.65e7; resting calcium signal, replicate 2 = 6.36e7; activity call = inactive

The list goes on.
CG8389 #1: calcium entry signal, replicate 1 = 3.40e7; calcium entry signal, replicate 2 = 2.43e7; resting calcium signal, replicate 1 = 1.59e7; resting calcium signal, replicate 2 = 1.21e7; activity call = inactive
CG8389 #2: calcium entry signal, replicate 1 = 2.69e7; calcium entry signal, replicate 2 = 4.03e7; resting calcium signal, replicate 1 = 1.26e7; resting calcium signal, replicate 2 = 1.71e7; activity call = inactive
CG32437 #1: calcium entry signal, replicate 1 = 2.63e7; calcium entry signal, replicate 2 = 4.04e7; resting calcium signal, replicate 1 = 1.30e7; resting calcium signal, replicate 2 = 1.70e7; activity call = inactive
CG32437 #2: calcium entry signal, replicate 1 = 2.89e7; calcium entry signal, replicate 2 = 6.28e7; resting calcium signal, replicate 1 = 1.46e7; resting calcium signal, replicate 2 = 2.79e7; activity call = inactive
CG11629: calcium entry signal, replicate 1 = 3.14e7; calcium entry signal, replicate 2 = 5.09e7; resting calcium signal, replicate 1 = 1.59e7; resting calcium signal, replicate 2 = 1.99e7; activity call = inactive
CG4022: calcium entry signal, replicate 1 = 2.37e7; calcium entry signal, replicate 2 = 3.24e7; resting calcium signal, replicate 1 = 1.22e7; resting calcium signal, replicate 2 = 1.44e7; activity call = inactive
CG14720: calcium entry signal, replicate 1 = 4.28e7; calcium entry signal, replicate 2 = 3.89e7; resting calcium signal, replicate 1 = 1.97e7; resting calcium signal, replicate 2 = 2.02e7; activity call = inactive
CG13299: calcium entry signal, replicate 1 = 2.98e7; calcium entry signal, replicate 2 = 4.52e7; resting calcium signal, replicate 1 = 1.40e7; resting calcium signal, replicate 2 = 2.02e7; activity call = inactive
